# According to PubChem BioAssay AID1347076 (National Center for Advancing Translational Sciences (NCATS), 2019):
# The whole screen tested about 400,000 compounds, of which about 13,000 (3.2%) were called active. Inconclusive means that the source gave no clear call. Such entries were picked first, then a sample of the others. The call rests on the fitted dose curve; in most records, active means well fitted cell-killing curve with a large enough effect; inconclusive means small, poorly fitted or top-dose-only effect, or effect the other way; inactive means flat fitted curve, though single readings scatter. A potency beside an inconclusive call is a rough fit, not a confirmed value.
# Assay: qHTS assay for MDR1-selective chemotherapeutics: Primary screen using the drug-selected MDR subline cells KB-V1; further: nearly all actives have a fitted effect of over 60% in size
# Settings: KB-V1 MDR cells viability, CellTiter-Glo, 72 h; activity change, negative = cytotoxicity: at 46.1 µM (top of the series)
# How it was run: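 Cytotoxicity via CellTiter-Glo luminescence after 72 h compound exposure at 37 degrees C. Cells: drug-selected KB-V1 line, DMEM phenol-red free plus 10% FBS. Compounds tested at multiple concentrations; normalized data fitted to concentration-effect curves.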
# On the % scale 0 is the no-effect control and ±100 the full control effect; potency means the concentration at half of the fitted maximal effect.
Compound,Potency,"activity change, negative = cytotoxicity"
Cn1c(=O)n(Cc2ccccc2)c(=O)c2c1nc1n2CCCN1CCc1ccccc1,active: 2.31 µM,–
Cn1c(-c2ccc(-c3ccccc3)cc2)c[nH]c1=S,"inconclusive: 16.4 µM [cytotoxic, single point]",–
COc1ccc(NC(=O)CCCn2cnc3ccccc3c2=O)c(OC)c1,"inconclusive: 1.03 µM [cytotoxic, full curve, poor fit]",–
C=C(C)C1(O)OC(=O)C=C1OC (stereo unspecified),"inconclusive: 23.1 µM [rising, single point]",–
CCc1n[nH]c(=S)n1/N=C/c1c(O)ccc2ccccc12,active: 5.8 µM,–
COC(=O)c1cncn1Cc1ccccc1,inactive,–
CCOc1ccc(-n2c(C)cc(/C=N/NC(=O)C(N)=O)c2C)cc1,inactive,–
CC(C)C[C@H](NC(=O)c1[nH]cnc1C(=O)Nc1ccccc1F)C(=O)OC(C)(C)C,"inconclusive: 20.6 µM [cytotoxic, partial curve, poor fit]",–
Cc1ccc2nc(-c3ccccc3)c(Cc3cccc(F)c3)n2c1,"inconclusive: 16.4 µM [cytotoxic, single point]",–
COc1ccccc1NC(=O)C1Cc2ccccc2CN1C(=O)c1ccco1 (stereo unspecified),"inconclusive: 10.3 µM [cytotoxic, partial curve, poor fit]",–
O=C(NC1CCCCC1)c1cccc(N2C(=O)CCC2=O)c1,inactive,–
O=C1[C@H](Cc2ccccc2)NCC=CC[C@H](c2ccc(Cl)cc2)N1Cc1ccc(Cl)cc1,"inconclusive: 29.1 µM [cytotoxic, single point]",–
CCN1CCN(c2ccc(N3CCN(C(=O)c4ccc(Br)o4)CC3)nn2)CC1,inactive,–
CC1(C(=O)NS(=O)(=O)c2ccc3c(c2)CCO3)CCN1C(=O)Cc1ccc(-c2ccccc2)cc1 (stereo unspecified),inactive,–
O=C(Nc1nccs1)c1ccc(COc2ccccc2Cl)o1,"inconclusive: 11.6 µM [cytotoxic, partial curve]",–
COc1ccccc1N1CCN(C(=O)c2nc(-c3ccc(C)cc3)n3c2CCCCC3)CC1,"inconclusive: 16.4 µM [cytotoxic, single point]",–
OCCNc1ncnc2c1c(-c1ccccc1)c(-c1ccccc1)n2Cc1ccco1,"inconclusive: 3.26 µM [cytotoxic, full curve]",–
Cc1sc2ncnc(SC(C)C(=O)N3c4ccccc4Sc4ccccc43)c2c1C (stereo unspecified),"inconclusive: 16.4 µM [cytotoxic, single point]",–
CCOc1ccc(-c2cc(NC(=O)c3c(F)cccc3F)c(C(=O)OC)s2)cc1,"inconclusive: 18.4 µM [rising, single point]",–
O=C(COC(=O)/C=C/c1cccc(C(F)(F)F)c1)NCc1ccccc1,"inconclusive: 29.1 µM [rising, single point]",–
Cc1nc(NC(=O)C(C)(C)C)sc1C(=O)Cn1cc(CCCC#N)nn1,inactive,–
O=C(Nc1ccccc1)c1cn2ccccc2n1,inactive,–
Cc1ccc(S(=O)(=O)CCC(=O)Nc2nnc(-c3ccc(F)cc3)o2)cc1,inactive,–
O=C(c1cccc(F)c1)N1C2C=CC(C2)C1(C(F)(F)F)C(F)(F)F (stereo unspecified),"inconclusive: 23.1 µM [rising, partial curve, poor fit]",–
O=C(CN1C2=NCCCN2c2ccccc21)c1ccc(Cl)cc1Cl,active: 13 µM,–
O=S(=O)(c1ccc(Cl)c(NC(=S)N/N=C/c2ccc(O)cc2)c1)N1CCOCC1,active: 20.6 µM,–

Compound,Potency,"activity change, negative = cytotoxicity"
O=C(Nc1ccccc1C(=O)N/N=C/c1ccc(F)cc1)c1ccccc1Br,active: 25.9 µM,–
CCOC(=O)C1C(=O)C=C(c2ccc(Br)cc2)CC1c1ccco1 (stereo unspecified),"inconclusive: 23.1 µM [cytotoxic, partial curve, poor fit]",–
Cn1c(C(=O)N2CCCC(C(=O)NCCCSC3CCCCC3)C2)cc2sccc21 (stereo unspecified),active: 8.2 µM,–
N#CC1(NC(=O)CSc2nncn2-c2ccccc2F)CCCC1,–,inconclusive: -23.3%
O=C(CSc1cccc[n+]1[O-])c1cc2ccccc2o1,active: 20.6 µM,–
COc1ccc(NC(=O)c2ccc3snnc3c2)cc1,inactive,–
N#CCC(=O)Nc1ccc(C(=O)OC(C(=O)Nc2cc(C(F)(F)F)ccc2Cl)c2ccccc2)cc1 (stereo unspecified),active: 14.6 µM,–
CCOC(=O)c1c(-c2ccc(F)cc2)csc1NC(=O)CN1C(=O)NC2(CCCCC2C)C1=O (stereo unspecified),"inconclusive: 4.11 µM [cytotoxic, full curve, poor fit]",–
Cc1ccccc1NS(=O)(=O)c1cccc(-c2nnc(-c3ccccc3)o2)c1,inactive,–
O=C(COC(=O)c1ccccc1C(=O)c1ccccc1)c1ccco1,"inconclusive: 29.1 µM [cytotoxic, single point]",–
Cc1cccc(C(=O)Nc2ccc(C(=O)/C=C/c3cccs3)cc2)c1,"inconclusive: 23.1 µM [cytotoxic, single point]",–
Cc1ccc(C(=O)OCN2C(=O)c3ccccc3C2=O)cc1S(=O)(=O)N1CCOCC1,inactive,–
COC1C=CC(CNC(=O)c2cc3c(=O)n4cccc(C)c4nc3n2C)(OC)O1 (stereo unspecified),inactive,–
COCCn1c(C2CCCCC2)nc2sc3ccccc3c(=O)c2c1=O,active: 4.11 µM,–
COc1ccc(C(=O)c2oc3ccccc3c2NC(=O)COc2cccc(C)c2)cc1,"inconclusive: 29.1 µM [rising, single point]",–
FC(F)(F)c1cnc(Sc2ncn[nH]2)c(Cl)c1,inactive,–
CCn1cc(C(=O)NCCCN2CCC(C)CC2)c(=O)c2cc(S(=O)(=O)N(C)C3CCCCC3)ccc21,"inconclusive: 29.1 µM [rising, single point]",–
CC(C)(C)NCCC(O)c1cc(C(F)(F)F)nc2c(C(F)(F)F)cccc12 (stereo unspecified),active: 20.6 µM,–
O=C(CCCC(=O)N1CCN(c2ccc([N+](=O)[O-])cc2)CC1)c1ccccc1,"inconclusive: 29.1 µM [cytotoxic, single point]",–
C/C(N)=C(/C#N)C(=O)CSc1nc(C2CCCCC2)n(-c2ccccc2)n1,"inconclusive: 20.6 µM [cytotoxic, partial curve, poor fit]",–
O=C(COC(=O)c1cc(=O)c2ccccc2o1)NCc1ccc(Cl)cc1,inactive,–
CCCOc1ccc(C(F)(F)F)cc1NC(=O)C1CC(=O)N(Cc2ccco2)C1 (stereo unspecified),"inconclusive: 29.1 µM [cytotoxic, single point]",–
Cc1nn(C)c2c1c(-c1ccccc1)cc(=O)n2C(C)C(=O)NCCc1ccc(Cl)cc1 (stereo unspecified),inactive,–
Cc1nn(C)c(C)c1N1C(=O)c2cccc3c(N)ccc(c23)C1=O,inactive,–
COc1cccc(CN2CCN(Cc3cc(OC)c(OC)cc3OC)CC2)c1,"inconclusive: 20.6 µM [cytotoxic, single point]",–
CCN(CC)S(=O)(=O)c1ccc(NC(=O)COC(=O)c2ccc(NC(=O)CC#N)cc2)cc1,inactive,–

# Entries of single compounds as entered above. Order of values: Potency	activity change, negative = cytotoxicity
# COc1ccccc1NC(=O)C1Cc2ccccc2CN1C(=O)c1ccco1 (stereo unspecified) in the list: inconclusive: 10.3 µM [cytotoxic, partial curve, poor fit]	–
# C=C(C)C1(O)OC(=O)C=C1OC (stereo unspecified) in the list: inconclusive: 23.1 µM [rising, single point]	–
# COc1ccccc1N1CCN(C(=O)c2nc(-c3ccc(C)cc3)n3c2CCCCC3)CC1 in the list: inconclusive: 16.4 µM [cytotoxic, single point]	–
# CCN1CCN(c2ccc(N3CCN(C(=O)c4ccc(Br)o4)CC3)nn2)CC1 in the list: inactive	–

# Later entries.

Compound,Potency,"activity change, negative = cytotoxicity"
COc1cccc(OCC(=O)O/N=C(\N)c2ccc(OC)c(OC)c2)c1,"inconclusive: 18.4 µM [cytotoxic, single point]",–
CC(CC(=O)NC(C)c1ccc2c(c1)OCCO2)c1ccccc1 (stereo unspecified),active: 25.9 µM,–
NS(=O)(=O)c1cccc(NC(=O)Cn2nc(C(=O)O)c3ccccc3c2=O)c1,inactive,–
Cc1cccc(N2CCN(S(=O)(=O)c3ccc4c(c3)CCN4C(=O)CCC(=O)O)CC2)c1C,"inconclusive: 29.1 µM [cytotoxic, partial curve, poor fit]",–
c1ccc(Cn2c(Cn3c(-c4cnccn4)nc4ccccc43)nc3ccccc32)cc1,active: 9.2 µM,–
Cc1cc(NC(=O)COn2nnc3ccc(S(C)(=O)=O)cc32)ccc1Br,inactive,–
COCCCNC(=O)C1CCN(S(=O)(=O)c2ccc3nc4c(c(C(=O)O)c3c2)CCCCC4)CC1,inactive,–
O=C1c2ccccc2C(=O)C1c1nccc2ccccc12,"inconclusive: 2.06 µM [cytotoxic, partial curve, poor fit]",–
CCOc1ccccc1OCCCC(=O)NC1CCCc2ccccc21 (stereo unspecified),"inconclusive: 10.3 µM [cytotoxic, partial curve]",–
O=C(NCc1cccnc1)c1cc(C2CCCN(C(=O)c3cccc(O)c3)C2)on1 (stereo unspecified),inactive,–
O=C(O)C1CCCCC1C(=O)Nc1ccccc1C(=O)N1CCN(c2ccc(F)cc2)CC1 (stereo unspecified),"inconclusive: 10.3 µM [cytotoxic, partial curve, poor fit]",–
COc1ccccc1-c1nnc2n1N=C(c1ccc(OC(F)F)c(OCC3CC3)c1)CS2,inactive,–
C=CCNC(=O)N1CCC(n2nccc2NC(=O)CCCc2ccccc2)CC1,inactive,–
CCC1CCCCN1S(=O)(=O)c1ccc(NC(=O)c2nc(SC)ncc2Cl)cc1 (stereo unspecified),inactive,–
COc1ccc(CCc2nc(C)ccc2O)cc1,"inconclusive: 20.6 µM [cytotoxic, partial curve, poor fit]",–
CCOc1ccccc1OCCCC(=O)N1CCN(S(=O)(=O)c2cccc(F)c2)CC1,active: 6.51 µM,–
CCNc1nc(C)nc2c1oc1ccccc12,inactive,–
Cc1cccc(NC(=O)c2cc(S(=O)(=O)N3CCCCC3)ccc2Cl)n1,inactive,–
COc1ccc(C(=O)N2CCC3(CC2)NCCc2[nH]cnc23)cc1OC,"inconclusive: 29.1 µM [rising, single point]",–
FC(F)(F)c1cc(Oc2ccccc2)nc(-c2ccccn2)n1,active: 14.6 µM,–
CCN(CC)C(=O)C1=C(C)N(CCCN2CCCC2=O)C(=O)C(CC(=O)NCc2cccs2)C1 (stereo unspecified),inactive,–
CC(NC(=O)c1cccc(S(=O)(=O)N(C)c2ccccc2)c1)c1cccnc1 (stereo unspecified),inactive,–
Cc1cnnn1-c1ccc(C(=O)CCl)cc1,inactive,–
Cc1cccc(N2CCN(C(=O)N3CCOCC3)CC2)c1C,"inconclusive: 29.1 µM [cytotoxic, single point]",–
